Source: patent publication US4254024 (dated 1981)
For some assays here: HELM strings list residues between dots; [ac] is acetyl, [am] amide, other brackets name non-standard units. [ ]: non-standard residue; d: D form. The star is where a group is joined. Boc = CC(C)(C)OC(=O)*

Legend:
[1] = general procedure: peptide synthesis; benzhydrylamine resin; hydroxymethylpolystyrene-divinylbenzene (1% crosslinked); DCC/HOSu (solution); dicyclohexylcarbodiimide; conditions: late stage modification step
peptide synthesis = conditions: coupling step, HOAc salt

With Boc-Tyr-DAla-Phe-Met(O)-ol the step yield ([1]; HOAc salt) was 80%.

For Boc-Tyr-DAla-Phe-Met-NHCH2 CH3, the step yield ([1]; HOAc salt) was 92%.

In the case of Boc-Tyr-DAla-Phe-Met-NHCH2CH2 OH, the step yield ([1]; HOAc salt) is reported as 97%.

Substance Boc-Tyr-DAla-Phe-Methioninol has a step yield ([1]; HOAc salt) of 93%.

Work on Boc-Y[dA]FM-NH2 yielded a step yield ([1]; HOAc salt) of 97%.

In the case of Boc-Y[dA]FM-OH, the step yield ([1]; HOAc salt) is reported as 57%.

For Boc-Y[dA]FM-OMe, the step yield (peptide synthesis) was 80%.

For PEPTIDE1{Y.[dA].F.M.[NHEtOH]}$$$$V2.0, the step yield ([1]; HOAc) was 64%.

With PEPTIDE1{Y.[dA].F.M.[NHEt]}$$$$V2.0 the step yield ([1]; HOAc) was 53%.

In the case of PEPTIDE1{Y.[dA].F.M.[OMe]}$$$$V2.0, the step yield ([1]; HOAc) is reported as 68%.

PEPTIDE1{Y.[dA].F.M.[am]}$$$$V2.0 gave a step yield ([1]; HOAc) of 66%.

With PEPTIDE1{Y.[dA].F.M}$$$$V2.0 the step yield ([1]; HOAc salt) was 60%.

With PEPTIDE1{Y.[dA].F.[Met(O)-ol]}$$$$V2.0 the step yield ([1]; HOAc salt) was 79%.

PEPTIDE1{Y.[dA].F.[Met-ol]}$$$$V2.0 showed a step yield ([1]; HOAc) of 82%.
